Measurements as given in the supplement of paper PMC5949888.
± gives the standard deviation of the averaged measurements. Most values lie at the floor of the assay. Slopes are relative: functional sequences can read slightly below zero.

test system: Saccharomyces cerevisiae PS128 hsf1 delta, HSF1(1-493) fusion; assay: growth estimate (transactivation domain function in HSF1 fusion, heat-shock survival) (a.u. (slope of normalised read count over time)); higher = stronger growth at 37°C, i.e. more transactivation activity; settings: library: random library
Experimental: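 Random 60-nt DNA library encoding peptides of up to 20 aa, fused to the C-terminus of yeast HSF1 residues 1-493 (C-terminal TAD deleted) and expressed from the native HSF1 promoter on a CEN plasmid in hsf1-deleted S. cerevisiae PS128. Cells were selected at 37°C on -trp 5-FOA plates for 0, 2, 4, 6 and 8 days and amplicons were sequenced. Growth estimate is the slope of a robust linear fit of total-sum-normalised read counts (normalised to the first time point) over time, using at least 2 replicates. Sequences are classed functional (TAD activity) above a threshold of -0.13, set from stop-codon control sequences.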

| Substance | growth estimate |
| --- | --- |
| RSVLVSR | < -0.25 |
| CNLDISRGVTLQLNVRSVCH | -0.205 |
| YGLGAGKTGCNVVASTAPVG | < -0.25 |
| SQVLMVIVDL | < -0.25 |
| HGLRPVVDSGGLALWGCGKS | -0.198 |
| RKFVDSVVPMVQGGIYG | < -0.25 |
| FYRWATPGWYPTPLCV | < -0.25 |
| LTPVIGCRAKGFSDMDSWYN | < -0.25 |
| PESRLMIERNWGGVKCPCWS | < -0.25 |
| GGLGSGLIGSGAFGG | < -0.25 |
| RWVSERIKSGSRRTYR | < -0.25 |
| GGHRVGLAPSLERKALNTDV | < -0.25 |
| PRTGVTRTVIYPGGGGDTTA | < -0.25 |
| RCCMEEASDPRRSETAIGAP | < -0.25 |
| GARGVTGHTGQ | < -0.25 |
| SAIPGLPR | < -0.25 |
| LSCFRLPAPSRLP | < -0.25 |
| IIFQRCVEIHRIGDEKDFR | < -0.25 |
| PIAFRCDGVCFTRRNMLGRG | -0.243 |
| LSCRLTKSARPAG | < -0.25 |
| PYVQRILALIDTWFTEFVAN | < -0.25 |
| ATIPRRTKFRTHGPLPESCP | < -0.25 |
| VWSPGGGESCRAPNGTFFVD | < -0.25 |
| GHDKE | < -0.25 |

| Substance | growth estimate |
| --- | --- |
| CMINAAYASP | < -0.25 |
| AGFSSEMVQAGYVAVAWPRR | < -0.25 |
| GSPNPGFVSSPSLLSTTSWS | < -0.25 |
| LGGRTVGWMLLLPWRFRSPV | < -0.25 |
| PGCSHGRGCRPTATL | < -0.25 |
| RINLGLEFAFTFLELTVLYR | < -0.25 |
| GVPGLLSEFLLI | 1.43 |
| LHAFLSSYV | < -0.25 |
| SRGQPTHTHQNGG | < -0.25 |
| IAGSGLLRLN | < -0.25 |
| GIYRTSALRVSGNGNAPKTL | < -0.25 |
| LCCCIAVPAAHRHEMPEN | < -0.25 |
| PGAFDSDVFCFWRRTYFGVD | < -0.25 |
| GRGGLEGTT | < -0.25 |
| NIDGAHA | < -0.25 |
| REKRRVLGGESNS | < -0.25 |
| VWVIARQRNRDILLCVTYEG | < -0.25 |
| MLAIVWTLYKRAAKPEHLRA | -0.221 |
| NKPRMGGSRRDARNAFVRLS | -0.246 |
| PNGCWYKNRFGFCLAPVNST | < -0.25 |
| ALES | < -0.25 |
| VWREVCQLSVYPRIHAGTSL | < -0.25 |
| SRVAWNLSRSPPYWIA | < -0.25 |
| PLVLPDDNPFDP | -0.179 |

| Substance | growth estimate |
| --- | --- |
| LGFACP | < -0.25 |
| GDLRFANGATCNVG | < -0.25 |
| SRIV | < -0.25 |
| LGPAGERLRS | < -0.25 |
| LQKAE | < -0.25 |
| LGGSGVEVKFTQFTQVAV | < -0.25 |
| SLRSHKQDHIQ | < -0.25 |
| LVTFVAAVPECKSLMAE | < -0.25 |
| LIPRSLDAYFNL | -0.0941 |
| HRPTSSKNKFQHRVSR | < -0.25 |
| NTEGLVVAGAIAE | < -0.25 |
| MPRLVL | < -0.25 |
| LQWPTVLRKFVYPYRQVAGH | < -0.25 |
| PGFN | < -0.25 |
| GVNTRRVGRDGREMRLLCTH | < -0.25 |
| CATAFSSLHRVRR | < -0.25 |
| ITRGDVVEERHTCDAG | < -0.25 |
| SAPNRVRVDAKQFLTALSYT | < -0.25 |
| ELRTQE | < -0.25 |
| LVRCVGPIGVPGSLLLPTT | < -0.25 |
| RSEQEREERSKRLD | < -0.25 |
| SGLPPSILFWVVLDLERTSP | < -0.25 |
| YPHPRQAHVGMQCTGCAEVH | < -0.25 |
| TRNRWYTPSEDDSDEISGRN | < -0.25 |

| Substance | growth estimate |
| --- | --- |
| CPFMSLVTLRGSKRPV | < -0.25 |
| HSVDCKR | < -0.25 |
| SLGEKLEVLHVFTWNTLPWT | < -0.25 |
| GVSGRTAHIHSELSIVRNAN | < -0.25 |
| ISPNWLPTRRFFG | < -0.25 |
| KYPLFVDCLSFVQWSVE | -0.233 |
| WWWGSTSGVDKDGYVKSILP | < -0.25 |
| FMVH | < -0.25 |
| RPESR | < -0.25 |
| RGAGGSFSSFYGDPRNPSNA | < -0.25 |
| DITVAADGRTQLTGSANVRH | < -0.25 |
| ALE | < -0.25 |
| ETVELDSHQSCTGSTESLSL | < -0.25 |
| VQLRSGQISVGRAKASLVAS | < -0.25 |
| STKHELELCSSRGLARRPTV | < -0.25 |
| PPSAIRKDPRHLFPPTL | -0.229 |
| EAYRAAGWPGSEGHEGRRNP | < -0.25 |
| NAIGTGLNTVGPSRV | < -0.25 |
| LDRSRRCLLAPFLAIGGKLC | < -0.25 |
| EGGKTLAGSQLPKA | < -0.25 |
| RELSSMGSGAVEIAHSFGQH | < -0.25 |
| FLLNVLPVLVVLPR | < -0.25 |
| HQTPEVNERLLGTPLSTIGV | < -0.25 |
| ANYFARYFFSTGGS | < -0.25 |

Single values from the list.
growth estimate with CATAFSSLHRVRR reads < -0.25
growth estimate with GHDKE reads < -0.25
growth estimate with AGFSSEMVQAGYVAVAWPRR reads < -0.25
growth estimate with FMVH reads < -0.25
growth estimate with SAPNRVRVDAKQFLTALSYT reads < -0.25
growth estimate with SLRSHKQDHIQ reads < -0.25

(list continues)

| Substance | growth estimate |
| --- | --- |
| GVEKC | < -0.25 |
| LGQVRRLLGYVTFGISFLSR | < -0.25 |
| GFVQSNRTMKVKAAGAWNTS | < -0.25 |
| YVYLAELHVPRSSKLVRRHL | < -0.25 |
| GEDKVAPAISFGLY | < -0.25 |
| PVFLWSRSATCQLE | < -0.25 |
| TLWLPGLVPAIERQSWYQAC | < -0.25 |
| WSPPSRI | < -0.25 |
| AFRRVRQNPSGLMAVSKYIR | < -0.25 |
| GVIGLASSSISSRDRRPGTL | < -0.25 |
| RRAFTWGQGVREVHDAPQTR | < -0.25 |
| RRNSSYDNSFIPGSLRQSPD | < -0.25 |
| SACVAITYLIEYRS | < -0.25 |
| NYK | < -0.25 |
| VSPEHL | < -0.25 |
| CNHTDRW | < -0.25 |
| ADVNCYPYWSLGST | -0.229 |
| RSYVGYFSQTILHIFKIH | < -0.25 |
| IADPRFVFPGALDWVKRYRS | < -0.25 |
| IASQRVNRRQQKDLRGADPA | < -0.25 |
| VRPLPDIRPGTRVTQLRSGQ | < -0.25 |
| PYFTVFLWWPRQPSSIWSWM | < -0.25 |
| RLIGTGPLVWTGKVNTRVLP | < -0.25 |
| FHPC | < -0.25 |

| Substance | growth estimate |
| --- | --- |
| CFSVRQLVGVPFPSVTGTAR | < -0.25 |
| RFASGDALYRDG | < -0.25 |
| SLCWGHHRRSIS | < -0.25 |
| SILRAQFAILGVTRPESMSA | < -0.25 |
| YIAGATPTFARSRLSATRLP | < -0.25 |
| EKCTCRRRQN | < -0.25 |
| SIFVLRVNKYTRGHYHRVRC | < -0.25 |
| GETRIGGTSRTSVTLSSDRY | < -0.25 |
| GSHLLAGSHNRECQLIDIPC | < -0.25 |
| TLNS | -0.239 ± 0.016 |
| DAYTHEKDLSRAGNP | < -0.25 |
| SLSLVSWEWTDSMEEAEHGT | -0.225 |
| YPSDSIARVPLVQDLAQLGA | < -0.25 |
| RAWGVRMVMRIRTRD | < -0.25 |
| KSVLGTPIVLHR | < -0.25 |
| GRRLKFPHGRQSGRQCFPRG | < -0.25 |
| HTGGMFPHYSGPCYAGCGVS | < -0.25 |
| FWTTGHMAYSYGSCSKSGPG | < -0.25 |
| AFVNFSSSPRNRWTGRSTCS | < -0.25 |
| DAYIGMVLYAL | < -0.25 |
| QRGVS | < -0.25 |
| WSTCALGSDNEVAHHPAWVA | -0.246 |
| GSTP | < -0.25 |
| PACLRRLRKENVRKCAPWCN | < -0.25 |

| Substance | growth estimate |
| --- | --- |
| ERCLRLNDCGRIVMFLRLQP | < -0.25 |
| PQNVNCANKVGSTGKHYDLP | < -0.25 |
| CNFLELRASLGARLRGTFW | < -0.25 |
| IPGGVSSDALDEGPSQFPLS | < -0.25 |
| DDRLVGWK | < -0.25 |
| AYGSVRG | < -0.25 |
| VIQK | < -0.25 |
| NDTAGTCGCYEGGRSAVFFA | < -0.25 |
| IRSVGGGVGLGPPTKRNCK | < -0.25 |
| SPLSS | < -0.25 |
| VIGRSIWTG | < -0.25 |
| SPKGTSFNTRFAASSSTVRT | < -0.25 |
| GHYCFLG | < -0.25 |
| MGVTYLEGLEGLIDDRY | 0.117 |
| VSEQCGMVGGLTSAHRA | < -0.25 |
| GDLWMGVVRQGIHQIRR | < -0.25 |
| KNGIVHDRSMRGPP | < -0.25 |
| RHGTLRDLR | < -0.25 |
| PQAF | < -0.25 |
| ALLDRDGITMLVA | < -0.25 |
| CTKREGNDAGLSRPRWPCYG | < -0.25 |
| LERWTLTYWVSILRLLRRPT | < -0.25 |
| VNKWPMQLLARGVTRGSQKS | < -0.25 |
| YASSTPGVYVRECTKKCAEA | < -0.25 |

| Substance | growth estimate |
| --- | --- |
| RVSRLGQNTSMSVQMMAQHF | < -0.25 |
| RIDPVNGECTESHLYRVP | < -0.25 |
| SSSCPRQKDMAV | < -0.25 |
| YVTFLTHTRR | < -0.25 |
| TQTPSPVNR | < -0.25 |
| LFGPWSYTPSYYTEASRCAV | < -0.25 |
| CGGISRWQSVWQAFVVATG | < -0.25 |
| EVMSDLTRQLEVEGSIASQV | < -0.25 |
| CTTL | < -0.25 |
| QRWDPVMQTRFVDVCSRGGR | < -0.25 |
| DITT | < -0.25 |
| RTRGRRYPV | < -0.25 |
| ELVNNGTVQPGVLGQHRLGQ | < -0.25 |
| HPSSDRCEGNLRYGDARGVA | < -0.25 |
| RGHLQKQAMSSVA | < -0.25 |
| MSSDKDGERYFC | < -0.25 |
| PWMVE | < -0.25 |
| GDRGRCRIGASMLVTEEIPS | < -0.25 |
| GEKFHQVTRVPSRAWPFGLN | -0.0747 |
| RAEWQTRGGPRVGAR | < -0.25 |
